No constants are given. Whether binding was seen depends on the method and setting. Some results given as binding are weak or reduced against the parent protein; the word gives no strength.
Key:
hu-Rγc subunit (human) [1] = biological target: T1, hu-Rγc subunit (human) (UniProt P31785); assay: competition binding ELISA ('a similar method'); tracer not named
T1 sequence (looked up): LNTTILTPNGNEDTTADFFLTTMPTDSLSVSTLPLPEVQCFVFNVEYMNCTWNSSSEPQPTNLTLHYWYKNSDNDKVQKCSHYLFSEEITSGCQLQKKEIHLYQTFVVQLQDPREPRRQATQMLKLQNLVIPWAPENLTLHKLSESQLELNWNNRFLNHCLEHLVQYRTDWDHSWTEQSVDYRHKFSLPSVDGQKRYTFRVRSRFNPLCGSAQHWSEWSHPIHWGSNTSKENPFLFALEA

hu-Rγc subunit (human) [2] = biological target: T1, hu-Rγc subunit (human); assay: competition binding ELISA

binding (hu-Rγc subunit (human) [1]): binds | binding (hu-Rγc subunit (human) [2]): binds
B1: IL-7Rαγc ligand having SEQ ID NO: 30 (peptide)
peptide: GWGIPWCTLDPGSLQCAWLGKHGGGGSGGVVCQDWEGVELCWQGG

From patent publication US20230322880A1 (MEDIKINE, published 2023)
